Assay results from paper PMC3390413.
These are yes or no findings as the source states them, for the method shown. In cells and extracts the contact can be indirect. For some assays here: A result given as binding can be weak or reduced; the word gives no strength. For some assays here: Sequences can lack the tags named with a protein.

What was measured:
FLAG-TRAF3 (human) = assay: co-IP; tagged proteins co-expressed in 293T cells; immunoprecipitation of whole cell extracts and immunoblot
[1] = biological target: FLAG-TRAF3 389–568 (human); assay: as above
FLAG-TRAF3 1–381 (human) = assay: as above
[2] = biological target: FLAG-TRAF3 259–568 (human); assay: as above
[3] = biological target: FLAG-TRAF3 Y440/Q442A (human); assay: as above
FLAG-TRAF3 1–117 (human) = assay: as above
[4] = biological target: FLAG-TRAF3 114–568 (human); assay: as above
[5] = biological target: endogenous TRAF3 (human (endogenous in HeLa and HEK293)); assay: co-IP; endogenous proteins; HeLa whole-cell lysates; IP with anti-TRAF3 (H-20), immunoblot; cells untreated or treated with SeV, poly I:C or poly dA:dT (for MAVS: cells with nonsilencing RNA duplexes, SeV infection)

Binder | binding (FLAG-TRAF3 (human)) | binding [1] | binding (FLAG-TRAF3 1–381 (human)) | binding [2] | binding [3] | binding (FLAG-TRAF3 1–117 (human)) | binding [4] | binding [5]
Myc-p115 (protein, UniProt O60763 1-962) MNFLRGVMGGQSAGPQHTEAETIQKLCDRVASSTLLDDRRNAVRALKSLSKKYRLEVGIQAMEHLIHVLQTDRSDSEIIGYALDTLYNIISNEEEEEVEENSTRQSEDLGSQFTEIFIKQQENVTLLLSLLEEFDFHVRWPGVKLLTSLLKQLGPQVQQIILVSPMGVSRLMDLLADSREVIRNDGVLLLQALTRSNGAIQKIVAFENAFERLLDIISEEGNSDGGIVVEDCLILLQNLLKNNNSNQNFFKEGSYIQRMKPWFEVGDENSGWSAQKVTNLHLMLQLVRVLVSPTNPPGATSSCQKAMFQCGLLQQLCTILMATGVPADILTETINTVSEVIRGCQVNQDYFASVNAPSNPPRPAIVVLLMSMVNERQPFVLRCAVLYCFQCFLYKNQKGQGEIVSTLLPSTIDATGNSVSAGQLLCGGLFSTDSLSNWCAAVALAHALQENATQKEQLLRVQLATSIGNPPVSLLQQCTNILSQGSKIQTRVGLLMLLCTWLSNCPIAVTHFLHNSANVPFLTGQIAENLGEEEQLVQGLCALLLGISIYFNDNSLESYMKEKLKQLIEKRIGKENFIEKLGFISKHELYSRASQKPQPNFPSPEYMIFDHEFTKLVKELEGVITKAIYKSSEEDKKEEEVKKTLEQHDNIVTHYKNMIREQDLQLEELRQQVSTLKCQNEQLQTAVTQQVSQIQQHKDQYNLLKIQLGKDNQHQGSYSEGAQMNGIQPEEIGRLREEIEELKRNQELLQSQLTEKDSMIENMKSSQTSGTNEQSSAIVSARDSEQVAELKQELATLKSQLNSQSVEITKLQTEKQELLQKTEAFAKSVEVQGETETIIATKTTDVEGRLSALLQETKELKNEIKALSEERTAIKEQLDSSNSTIAILQTEKDKLELEITDSKKEQDDLLVLLADQDQKILSLKNKLKDLGHPVEEEDELESGDQEDEDDESEDPGKDLDHI | binds | no binding | no binding | no binding | binds | no binding | no binding | 
endogenous p115 (protein, UniProt O60763 1-962) MNFLRGVMGGQSAGPQHTEAETIQKLCDRVASSTLLDDRRNAVRALKSLSKKYRLEVGIQAMEHLIHVLQTDRSDSEIIGYALDTLYNIISNEEEEEVEENSTRQSEDLGSQFTEIFIKQQENVTLLLSLLEEFDFHVRWPGVKLLTSLLKQLGPQVQQIILVSPMGVSRLMDLLADSREVIRNDGVLLLQALTRSNGAIQKIVAFENAFERLLDIISEEGNSDGGIVVEDCLILLQNLLKNNNSNQNFFKEGSYIQRMKPWFEVGDENSGWSAQKVTNLHLMLQLVRVLVSPTNPPGATSSCQKAMFQCGLLQQLCTILMATGVPADILTETINTVSEVIRGCQVNQDYFASVNAPSNPPRPAIVVLLMSMVNERQPFVLRCAVLYCFQCFLYKNQKGQGEIVSTLLPSTIDATGNSVSAGQLLCGGLFSTDSLSNWCAAVALAHALQENATQKEQLLRVQLATSIGNPPVSLLQQCTNILSQGSKIQTRVGLLMLLCTWLSNCPIAVTHFLHNSANVPFLTGQIAENLGEEEQLVQGLCALLLGISIYFNDNSLESYMKEKLKQLIEKRIGKENFIEKLGFISKHELYSRASQKPQPNFPSPEYMIFDHEFTKLVKELEGVITKAIYKSSEEDKKEEEVKKTLEQHDNIVTHYKNMIREQDLQLEELRQQVSTLKCQNEQLQTAVTQQVSQIQQHKDQYNLLKIQLGKDNQHQGSYSEGAQMNGIQPEEIGRLREEIEELKRNQELLQSQLTEKDSMIENMKSSQTSGTNEQSSAIVSARDSEQVAELKQELATLKSQLNSQSVEITKLQTEKQELLQKTEAFAKSVEVQGETETIIATKTTDVEGRLSALLQETKELKNEIKALSEERTAIKEQLDSSNSTIAILQTEKDKLELEITDSKKEQDDLLVLLADQDQKILSLKNKLKDLGHPVEEEDELESGDQEDEDDESEDPGKDLDHI |  |  |  |  |  |  |  | binds weakly
